# Laboratory results taken from PubChem BioAssay AID590 (National Center for Advancing Translational Sciences (NCATS), 2007).
# “And” between values parts separate entries of the source, which are not always exact repeats. Equal entries are not always repeated. About 6,500 (11%) of roughly 59,000 compounds were called active. The inconclusive results got no clear call from the source; some entries with a clear call stand among them for comparison. Cut-off read from the data, not from the text of the source: active = max dye-equivalent concentration above about 10 nM; inconclusive = mostly about 1.1 nM to 9.6 nM; inactive = weaker than that.
# Test: qHTS Assay for Spectroscopic Profiling in A350 Spectral Region
# Settings: Compound autofluorescence, 340/450 nm, Alexa 350 dye-equivalents; stronger effect = higher value
row,SMILES,max dye-equivalent concentration
1,COC(=O)[C@@H]1C2CCC(C(=O)Nc3ccccc3)(CC2)[C@@H]1C(=O)OC,inconclusive: 2e-09 M
2,COCCn1c(=O)c(-c2ccccc2)nc2cnc(Nc3cccc(OC)c3)nc21,inconclusive: 4.9e-09 M
3,COc1ccc2nc(NC(=O)c3ccc(Br)s3)sc2c1,active: 5.5e-07 M
4,O=C(COc1ncnc2c(Cl)cc(Cl)cc12)N1CCCCC1,inconclusive: 1.6e-09 M
5,O=C1CCCc2nc(NCc3ccco3)ncc21,inconclusive: 3e-09 M
6,Fc1ccc(-c2cc(C(F)(F)F)nc(NCC3CCCO3)n2)cc1 (stereo not given),active: 1.4e-08 M
7,N#Cc1nc(-c2ccco2)oc1NCCCn1ccnc1,inconclusive: 4.6e-09 M
8,CCCCC(=O)NC1(C(F)(F)F)C(=O)Nc2c1c(=O)[nH]c(=O)n2Cc1ccco1 (stereo not given),inconclusive: 6e-09 M
9,Cc1cc(C)cc(OC(=O)N2CCOCC2)c1,inconclusive: 1.2e-09 M
10,COc1ccc(C(NC(=O)C(C)(C)C)NC(=O)C(C)(C)C)cc1,active: 3.7e-08 M
11,N#C/C(=C\c1ccc[nH]1)Sc1nc2ccccc2s1,inconclusive: 1.6e-09 M
12,CCCn1c(SCc2ccccc2)nc2c1c(=O)[nH]c(=O)n2C,inactive
13,CCOC(=O)c1cnc(SC2CC(=O)N(c3ccc(OC)c(OC)c3)C2=O)nc1N (stereo not given),inconclusive: 1.2e-09 M
14,O=C(Cn1c(NCCO)nc2ccccc21)NCCc1ccccc1,inconclusive: 3.6e-09 M
15,CN(C)Cc1cc(Cl)c(O)c(CN(C)C)c1,inactive
16,Clc1ccc(OCc2nnc(SCc3nc4ccccc4[nH]3)n2Cc2ccco2)cc1,inconclusive: 2.6e-09 M
17,COc1ccc(CNC(=O)c2ccc(=O)oc2)cc1OC,inconclusive: 1.1e-09 M
18,CCn1cc(C(=O)N=c2sc3ccccc3n2C)c(=O)c2ccc(C)nc21,inconclusive: 1.4e-09 M
19,CCCCn1c(=N)n(CC(O)COc2ccc(C)cc2)c2ccccc21 (stereo not given),inconclusive: 1.8e-09 M
20,CCC(Sc1nc2n[nH]c(C)c2c(=N)n1-c1cccc(Cl)c1C)C(=O)N(CC)CC (stereo not given),inconclusive: 1.2e-09 M
21,O=C(c1c[nH]c2ccc(S(=O)(=O)N3CCC4(CC3)OCCO4)cc2c1=O)N1CCOCC1,active: 5.7e-08 M
22,COc1cc(-c2cc(C(=O)O)c3c(OC)c(OC)c(OC)cc3n2)ccc1O,inconclusive: 7.3e-09 M
23,COc1cccc(Cn2c(=O)c(-c3cc(F)cc(F)c3)nc3cnc(N4CCNCC4)nc32)c1,inconclusive: 4.8e-09 M

row,SMILES,max dye-equivalent concentration
1,O=C1CC(N2CCC(c3nc4ccccc4s3)CC2)C(=O)N1 (stereo not given),inconclusive: 1.4e-09 M
2,COc1ccc(N2C(C)=CS/C2=C(/C#N)c2nnc(N3CCOCC3)n2-c2ccccc2)cc1,inactive
3,CCOCCCn1c(=S)[nH]c2cc(C(=O)N3CCC(C(N)=O)CC3)ccc2c1=O,inconclusive: 4.8e-09 M
4,COc1ccc(N(C(C)C(=O)NC2CCCCCC2)S(C)(=O)=O)cc1 (stereo not given),inconclusive: 1.2e-09 M
5,CCS(=O)(=O)N1CCC(c2nc(-c3ccc(C(F)(F)F)cc3)no2)CC1,inconclusive: 1.3e-09 M
6,O=C(O)c1ccc2c(c1)CC(c1ccccc1)OC2=O (stereo not given),inconclusive: 3.5e-09 M
8,COc1cccc(NC(=O)c2oc3ccccc3c2NC(=O)c2ccc3c(c2)OCO3)c1,active: 1.5e-07 M
9,CC1CCCCN1CCNC(=O)Cn1nc(-c2ccccc2)ccc1=O (stereo not given),inactive
10,COc1ccc(C(=O)NC2(C(F)(F)F)N=C3SCCN3C2=O)cc1 (stereo not given),inconclusive: 2e-09 M
11,COc1cccc(-c2noc(-c3cccnc3)n2)c1,inactive
12,C/C(=C\C#N)n1nc(C)cc1N,inactive
13,O=C(Nc1nccs1)c1ccc(S(=O)(=O)c2ccccc2)cc1,inconclusive: 2.1e-09 M
14,O=C(CSc1n[nH]c(-c2ccncc2)n1)Nc1ccccn1,inconclusive: 1.2e-09 M
15,CCOC(=O)c1ccc(NC(=O)CCc2nc(-c3ccccc3Cl)no2)cc1,inconclusive: 2.1e-09 M
16,O=C(Nc1ccc2c(c1)nc1n2CCCCC1)c1cc(S(=O)(=O)N2CCOCC2)ccc1Cl,inconclusive: 1.1e-09 M
17,O=C(NCC(=O)N(Cc1cccs1)C(C(=O)NC1CCCC1)c1ccco1)c1cccs1 (stereo not given),inactive
18,CCOc1cc(NC(=O)c2ccco2)c(OCC)cc1NC(=O)COc1ccccc1C,active: 9e-08 M
19,CCN(CC)C(=O)CSc1nnc(-c2cc3ccccc3cc2O)n1CC,inconclusive: 4.3e-09 M
20,Cc1c(C)c(C)c(CC2(C)CSC2)c(CC2(C)CSC2)c1C,inconclusive: 4e-09 M
21,O=C(CSc1nnc(CCCO)n1-c1ccccc1)Nc1nccs1,inconclusive: 1.4e-09 M
22,Cc1onc(-c2c(F)cccc2Cl)c1C(=O)N1CCCc2ccccc21,inconclusive: 1.3e-09 M
23,O=C(O)C[C@H]1OCC=C2C[N@@+]3([O-])CC[C@]45c6ccccc6N[C@@H]4[C@@H]1[C@H]2C[C@H]53,inactive

row,SMILES,max dye-equivalent concentration
1,Cc1sc(NC(=O)CSc2nnc(-c3ccccc3)o2)c(C#N)c1C,inconclusive: 1.9e-09 M
2,COC(=O)C1=C(C)NC(=O)C1(Nc1ccc(Cl)cn1)C(F)(F)F (stereo not given),inconclusive: 1.1e-09 M
3,O=C(c1ccc(F)cc1)c1cn[nH]c1-c1ccccc1O,inconclusive: 1.5e-09 M
4,O=c1c(-c2cc(F)cc(F)c2)nc2cnc(N3CCOCC3)nc2n1C1CC1,active: 1.8e-08 M
5,O=C(CCOc1ccccc1)NCC(c1ccco1)N1CCCCC1 (stereo not given),active: 2.4e-08 M
6,CCCCn1c(=O)c(C(=O)OCC)c(O)c2ccccc21,inactive
7,CCc1ccccc1NC(=O)N[C@@H](C)C(=O)O,inconclusive: 1e-08 M
8,Cc1ccc(-c2ccc(=O)n(CC(=O)N3CCN(c4cccc(C)c4)C(C)C3)n2)cc1 (stereo not given),inactive
9,CCCCOC(=O)Cn1c(=N)n(CCN2CCOCC2)c2ccccc21,inactive
10,O=C(O)COc1c(Cl)cc(Cl)c2cccnc12,inconclusive: 3.2e-09 M
11,O=C(O)c1nn(-c2ccc(Cl)cc2)c2c1C(=O)c1ccccc1C2=O,inactive
12,CCC1(C)Cc2c(C#N)c(N)n(N)c(=S)c2CO1 (stereo not given),inactive
13,Cc1cc(C)cc(N2C(=O)C3CC=CCC3C2=O)c1 (stereo not given),inactive
14,CC(=O)Nc1cccc2c1[n+]([O-])c(C)c(C)[n+]2[O-],inactive
15,COc1ccc2c(c1)N(C)C(=O)CC(c1ccccc1)=N2,inconclusive: 1.1e-09 M
16,Cc1nc(SCC#N)c2c3c(sc2n1)CCC3,inactive
17,O=C(O)CCc1nc2cccnc2n1Cc1ccccc1,inconclusive: 1.1e-09 M
18,NCC[C@H](N)C(=O)O,inactive
19,Cc1nnc(SCCn2c(N3CCN(C)CC3)nc3c2c(=O)[nH]c(=O)n3C)s1,inconclusive: 6.8e-09 M
20,COc1ccc(-c2cn3ccccc3n2)cc1OC,inconclusive: 2.2e-09 M
21,O=C(NCC1CCCO1)C1CC(c2ccc(Cl)c(Cl)c2)=NO1 (stereo not given),inactive
22,COCCCN1C(=O)c2ccc(C(=O)Nc3ccc(OC)cc3OC)cc2C1=O,inactive
23,COc1cccc(-c2csc(NC(C)=O)n2)c1,inconclusive: 1.9e-09 M

# Quoted from the listing:
# max dye-equivalent concentration, O=C(NCC1CCCO1)C1CC(c2ccc(Cl)c(Cl)c2)=NO1 (stereo not given) reads inactive
# max dye-equivalent concentration, Cc1sc(NC(=O)CSc2nnc(-c3ccccc3)o2)c(C#N)c1C reads inconclusive: 1.9e-09 M
# max dye-equivalent concentration, COc1ccc(-c2cn3ccccc3n2)cc1OC reads inconclusive: 2.2e-09 M
# max dye-equivalent concentration, CCc1ccccc1NC(=O)N[C@@H](C)C(=O)O reads inconclusive: 1e-08 M

# Later entries

row,SMILES,max dye-equivalent concentration
1,CCOc1ccc2nc(NCCO)[nH]c2c1,inactive
2,O=C(CCNc1ccccc1)c1ccc2c(c1)OCO2,active: 2.7e-08 M
3,O=S(=O)(NC1c2cccc3cccc(c23)C1N1CCN(CCO)CC1)c1ccccc1 (stereo not given),inconclusive: 2e-09 M
4,CCOc1cc(N2CCOCC2)c(OCC)cc1NC(=O)COc1cccc2cccnc12,active: 1.9e-08 M
5,Cc1ncc(CO)c2c1OC(C)(C)OC2,inconclusive: 1.3e-09 M
6,CSc1nc2cc(S(=O)(=O)N3CCOCC3)ccc2s1,inconclusive: 4.6e-09 M
7,O=C(O)c1ccc(CSc2n[nH]c(-c3ccco3)n2)cc1,inconclusive: 3.2e-09 M
8,C[C@H](C(=O)c1ccccc1)[C@@H](c1ccccc1)N1CCOCC1,inconclusive: 1.4e-09 M
9,O=C(Nc1ccccc1C(F)(F)F)c1ccc(F)c(S(=O)(=O)N2CCOCC2)c1,inconclusive: 1.5e-09 M
10,C=CCn1c(SCC(=O)NCC(=O)OCC)nnc1-c1ccccn1,inconclusive: 1.2e-09 M
11,C(=N\C(/N=C/c1ccco1)c1ccco1)/c1ccco1,inconclusive: 7.4e-09 M
12,COCCNC(=O)C(c1ccc(C)o1)N(C(=O)c1snc(C(N)=O)c1N)c1cc(C)cc(C)c1 (stereo not given),active: 9.8e-08 M
13,Cc1[nH]c2ccccc2c1C(c1ccccn1)N1CCC(C(N)=O)CC1 (stereo not given),inconclusive: 1.1e-09 M
14,COc1ccc([C@@H]2CC(=O)c3c(O)cc(O[C@@H]4O[C@@H](CO[C@@H]5O[C@@H](C)[C@@H](O)[C@@H](O)[C@H]5O)[C@@H](O)[C@@H](O)[C@H]4O)cc3O2)cc1O,inactive
15,Nc1nc(CN2CCOCC2)cs1,inactive
16,COC(=O)c1ccc2c(=O)n(Cc3ccco3)c(SCC(=O)Nc3ccccc3Cl)nc2c1,inconclusive: 5.4e-09 M
17,Cc1nc2nc(SCC(N)=O)[nH]c2cc1Br,inconclusive: 1.2e-09 M
18,O=c1c2c(nc3nc(SCc4ccccc4)[nH]n13)CCC2,inconclusive: 1.8e-09 M
19,CC1c2[nH]c3ccccc3c2CCN1C(=O)Nc1ccccc1 (stereo not given),active: 1.3e-07 M
20,COC(=O)c1cc2c(=O)n3ccccc3nc2n(C)c1=N,active: 1.3e-05 M
21,CCOc1ccc(CN(C(=O)c2ccco2)C2CCS(=O)(=O)C2)cc1 (stereo not given),inconclusive: 2.2e-09 M
